Source: PubChem BioAssay AID1347076 (National Center for Advancing Translational Sciences (NCATS), 2019)
Screen size: about 400,000 compounds; about 13,000 (3.2%) were called active. Inconclusive means that the source gave no clear call. Such entries were picked first, then a sample of the others. Calls come from the whole dose curve; as a rule, active = well fitted cell-killing curve with a large enough effect; inconclusive = small, poorly fitted or top-dose-only effect, or effect the other way; inactive = flat fitted curve, though single readings scatter. Where the call is inconclusive, the potency comes from a doubtful curve fit.

assay: qHTS assay for MDR1-selective chemotherapeutics: Primary screen using the drug-selected MDR subline cells KB-V1; settings: KB-V1 MDR cells viability, CellTiter-Glo, 72 h; activity change, negative = cytotoxicity: at 46.1 µM (top of the series); note: nearly all actives have a fitted effect of over 60% in size
Outline: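 Compound-treated KB-V1 multidrug-resistant cells, 72 h, 37 degrees C; viability by CellTiter-Glo. Fitted qHTS curves give the values.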
% is set by controls: 0 for no effect and ±100 for the full control effect; potency is the fitted concentration of half-maximal effect.

| SMILES | activity change, negative = cytotoxicity | Potency |
| --- | --- | --- |
| Cn1cc(C(=O)N/N=C/C(Br)=C/c2ccccc2)ccc1=O | inactive: 8.88% | – |
| CN(c1ccc(/C=C/c2ccccc2)cc1)P1(=O)NCCCO1 (stereo not drawn) | inactive: 6.34% | – |
| CC(C)n1c(CCC(=O)O)ccc1-c1ccccc1 | inactive: 4.3% | – |
| COc1cccc(COCC(O)Cn2cnc3cc(C)c(C)cc32)c1 (stereo not drawn) | – | inconclusive: 5.17 µM [cytotoxic, full curve] |
| CCOC(=O)C1CCN(C(=O)CSc2cc(=O)n(C)c3ccccc23)CC1 | – | inconclusive: 18.4 µM [cytotoxic, partial curve] |
| COc1ccc(-n2c(SCC(N)=O)nc3c(oc4ccccc43)c2=O)cc1 | inactive: 0% | – |
| Cc1ccc(S(=O)(=O)NC(CC(C)C)C(=O)N2CCOCCOCCOCCOCC2)cc1 (stereo not drawn) | – | inconclusive: 32.6 µM [cytotoxic, single point] |
| Cn1c(SCC(=O)NC2CCCCC2)nnc1-c1cccnc1 | – | inconclusive: 2.59 µM [rising, partial curve, poor fit] |
| O=C(CN1CCOCC1)NCc1cc([N+](=O)[O-])ccc1O | – | inconclusive: 29.1 µM [rising, partial curve, poor fit] |
| COc1cc(CC(=O)Nc2cccc(SC)c2)cc(OC)c1OC | – | inconclusive: 6.51 µM [cytotoxic, partial curve] |
| CS(=O)(=O)Nc1cccc(NC(=O)C2Cc3c(-c4ccco4)ccnc3O2)c1 (stereo not drawn) | inactive: -14.8% | – |
| O=C(CN1CCN(Cc2ccccc2Cl)C1=O)NC1CCCCCCC1 | – | inconclusive: 0.0046 µM [cytotoxic, full curve, poor fit] |
| Cc1nn(-c2ccccc2)c(C)c1/C=N/N1CCN(c2ccccc2)CC1 | – | inconclusive: 29.1 µM [cytotoxic, partial curve, poor fit] |
| COc1cccc(CN(C)C(=O)C(CCSC)NS(=O)(=O)c2ccc3c(c2)OCCO3)c1OC (stereo not drawn) | – | active: 14.6 µM |
| Cc1ccc(OCc2nnc(SCc3nc4ccccc4[nH]3)n2Cc2ccco2)cc1 | – | inconclusive: 18.4 µM [cytotoxic, partial curve, poor fit] |
| COc1ccc(N2CCN(C(=O)CCS(=O)(=O)c3cccc4nsnc34)CC2)cc1 | – | inconclusive: 14.6 µM [cytotoxic, partial curve] |
| COC(=O)CSc1nnc(NC(=O)c2ccc3c(c2)OCO3)s1 | – | inconclusive: 9.2 µM [rising, partial curve] |
| CC(C)CN1CCc2nc(Nc3ccc(F)cc3F)ncc2C1 | inactive: 3.81% | – |
| C[C@H]1[C@H](C)CC[C@]2(C(=O)O)CC[C@]3(C)C(=CC[C@@H]4[C@@]5(C)C[C@@H](O)[C@H](O)C(C)(C)[C@@H]5CC[C@]43C)[C@H]12 | inactive: -2.7% | – |
| CCc1nc2c(OCc3ccccc3)cccn2c1N(C)C(=O)c1ccc2c(c1)OCO2 | inactive: -2.55% | – |
| Cc1onc(-c2ccccc2)c1C(=O)Nc1cccc(S(=O)(=O)N2CCCCC2)c1 | – | inconclusive: 7.31 µM [cytotoxic, partial curve] |
| Cc1cc(C(=O)c2ccc(Cl)cc2)c(NC(=O)CCl)s1 | – | inconclusive: 20.6 µM [cytotoxic, single point] |
| COc1ccc(NS(=O)(=O)c2cccc(C(=O)OCC(=O)N3CCN(c4ccc(OC)cc4)CC3)c2)cc1 | – | inconclusive: 9.2 µM [cytotoxic, partial curve] |

| SMILES | activity change, negative = cytotoxicity | Potency |
| --- | --- | --- |
| CC(=O)Nc1ccc(S(=O)(=O)NC2C3(C)CCC(C3)C2(C)C)cc1 (stereo not drawn) | inactive: 0% | – |
| COc1ccc(C2N(C(=O)CN3CCOCC3)CCN2S(=O)(=O)c2ccccc2)cc1 (stereo not drawn) | – | inconclusive: 20.6 µM [cytotoxic, partial curve, poor fit] |
| COc1ccccc1-c1cc(NC=O)c2ncc(-c3ccc(F)cc3)n2c1 | – | active: 9.2 µM |
| COc1ccc(CCC(=O)NCc2ccc3c(c2)CCN3C(=O)c2ccccc2)cc1 | – | inconclusive: 20.6 µM [cytotoxic, single point] |
| CC(OC(=O)c1cccnc1Cl)C(=O)NC1CCCCC1 (stereo not drawn) | inactive: 2.47% | – |
| Cc1ccc(C)c(NC(=S)NC(NC(=O)Cc2cccc3ccccc23)C(Cl)(Cl)Cl)c1 (stereo not drawn) | – | inconclusive: 18.4 µM [cytotoxic, partial curve] |
| Oc1[nH]c2c(Cl)cc(Cl)cc2c1N=NC(=S)NCC1CCCO1 (stereo not drawn) | – | inconclusive: 5.17 µM [cytotoxic, partial curve] |
| COc1ccc(C#Cc2cccc(-c3nc(C(=O)NCc4ccc(Oc5ccccc5)cc4)cc4c3[C@@H](CCO)N(S(=O)C(C)(C)C)C4)c2)cc1OC (stereo partly drawn) | inactive: -6.67% | – |
| Cc1ccc(-n2nc3c(=O)n(CC(=O)NCCc4ccccc4C)nc(C)c3c2C)cc1 | inactive: -27.9% | – |
| Cc1ccc(-c2nn(-c3ccccc3)cc2/C=C/C(=O)OCC(=O)NC2CC2)o1 | – | inconclusive: 11.6 µM [cytotoxic, partial curve] |
| COc1ccc2cc(C#N)c(N3CCN(Cc4nnnn4CCC(C)C)CC3)nc2c1 | – | inconclusive: 13 µM [cytotoxic, partial curve, poor fit] |
| CCS(=O)(=O)N1CCc2cc(C(=O)N3CCN(c4ccccc4OC)CC3)ccc21 | inconclusive: -30.6% [cytotoxic] | – |
| CCCN(CCC)S(=O)(=O)c1cccc(-c2csc(C)n2)c1 | – | inconclusive: 20.6 µM [cytotoxic, single point] |
| Cc1cccc(NC(=O)CNC(=O)Cn2cc(C(F)(F)F)cc(Cl)c2=O)c1C | – | inconclusive: 32.6 µM [rising, single point] |
| CC(C)(C)C(=O)N1CCc2cc(-c3csc(N)n3)ccc21 | inactive: 0% | – |
| CC(C(=O)Nc1ccc2c(c1)OCO2)N(C)CC(=O)Nc1ccccc1Cl (stereo not drawn) | inactive: 0% | – |
| CC(C)c1ccc(S(=O)(=O)Nc2ccc(SC(F)F)cc2)cc1 | – | inconclusive: 20.6 µM [cytotoxic, single point] |
| Cc1ccc(N(Cc2cccs2)C(=O)C(C)Oc2ccc(Cl)c(C)c2)cc1 (stereo not drawn) | inactive: -13.3% | – |
| COc1cc2[nH]c(=O)n(Cc3ccc(C(=O)N4CCN(c5ccc(Cl)cc5)CC4)cc3)c(=O)c2cc1OC | inactive: 13.5% | – |
| COc1ccc(N2CCN(c3ccc(-c4nc(-c5ccccc5)no4)cc3[N+](=O)[O-])CC2)cc1 | inactive: 0% | – |
| Cc1cccc(NC(=O)CCC(=O)Nc2nnc(C(F)(F)F)s2)c1 | – | inconclusive: 9.2 µM [rising, partial curve, poor fit] |
| Cc1cccc(C)c1NC(=O)C(c1ccccc1OC(F)(F)F)N1CCC(c2ccccc2)CC1 (stereo not drawn) | – | inconclusive: 14.6 µM [cytotoxic, partial curve, poor fit] |
| CC(O)CNc1nc2ccccc2n1CC(=O)N1CCN(Cc2ccccc2)CC1 (stereo not drawn) | – | inconclusive: 11.6 µM [rising, partial curve] |

| SMILES | activity change, negative = cytotoxicity | Potency |
| --- | --- | --- |
| CCOc1ccc(CCNC(=O)c2cc3c(=O)n(CC)c4ccccc4c3s2)cc1OCC | – | inconclusive: 6.51 µM [rising, partial curve, poor fit] |
| CCOc1ccc(Oc2ccccc2NC(=O)CSCC(=O)Nc2cc(C)on2)cc1 | – | inconclusive: 20.6 µM [cytotoxic, single point] |
| Cn1nc(C(C)(C)C)cc1N1C(=O)CCC1(C)C(=O)NCc1ccccc1 (stereo not drawn) | – | inconclusive: 29.1 µM [cytotoxic, single point] |
| Cc1cc(C)c2nccc(/C=C/c3ccc(N(C)C)cc3)c2c1 | – | inconclusive: 20.6 µM [cytotoxic, single point] |
| CCOC(=O)N1CCC(NC(=O)c2ccc3c(c2)N=C(CC)c2cc(C)ccc2S3)CC1 | – | inconclusive: 2.06 µM [cytotoxic, full curve] |
| O=C(Cc1ccccc1)Nc1ccc(NC(=O)c2ccco2)cc1 | – | inconclusive: 29.1 µM [rising, single point] |
| O=[N+]([O-])c1ccc(Cl)cc1NCc1cccnc1 | – | inconclusive: 23.1 µM [cytotoxic, single point] |
| CN1C=Nc2c(ncn2C2CCC(CO)O2)C1O (stereo not drawn) | inactive: 8.25% | – |
| COc1ccc(N(C(C)C(=O)N/N=C/c2cccnc2)S(C)(=O)=O)cc1 (stereo not drawn) | – | inconclusive: 18.4 µM [rising, single point] |
| O=C(c1ccc(NS(=O)(=O)c2ccc(F)cc2)cc1)N1CCCCC1 | – | inconclusive: 18.4 µM [cytotoxic, single point] |
| Cc1ccc(Cl)cc1N1CCN(C(=O)CN2C(=O)COc3ccc(S(=O)(=O)N4CCCCCC4)cc32)CC1 | – | active: 25.9 µM |
| COc1ccc(S(=O)(=O)NCCSc2nnnn2-c2ccccc2)cc1OC | inactive: -1.8% | – |
| COc1ccc(/C=N/NC(=O)Cn2nnc3ccccc32)cc1OC | – | inconclusive: 1.84 µM [rising, full curve] |
| Cc1ccc(CN2[C@@H](CC3CCCCC3)COCCS2(=O)=O)cc1 | – | inconclusive: 25.9 µM [cytotoxic, single point] |
| COc1ccc2c(c1)c(C(=O)CNc1nc(C)cs1)c(C)n2C | – | inconclusive: 20.6 µM [cytotoxic, partial curve] |
| c1ccc(COc2ccccc2CNc2nn[nH]n2)cc1 | – | inconclusive: 29.1 µM [rising, single point] |
| COc1cccc(OCc2cc(C(=O)N(C)CCC3CCCCO3)no2)c1 (stereo not drawn) | – | inconclusive: 7.31 µM [cytotoxic, partial curve] |
| Cc1ccccc1Nc1c(-c2cccc(Cl)c2)nc2ncccn12 | – | inconclusive: 16.4 µM [rising, single point] |
| CC(=O)c1ccc(-c2nc3c4ccccc4ccn3c2C(C)=O)o1 | – | active: 7.31 µM |
| CNC(=O)C1CC(=O)N(Cc2ccccc2)C(=Nc2ccc(OC)cc2)S1 (stereo not drawn) | – | inconclusive: 3.26 µM [cytotoxic, full curve] |
| COc1ccc(NC(=O)CSc2ncc(-c3ccc(F)cc3)n2Cc2ccco2)cc1 | inactive: 0% | – |
| Cc1cccc(CNC(=O)C2CCC(=O)N(CCCc3ccccc3)C2)c1 (stereo not drawn) | – | inconclusive: 16.4 µM [cytotoxic, single point] |

3 records drawn at random from those above:

| SMILES | activity change, negative = cytotoxicity | Potency |
| --- | --- | --- |
| CN1C=Nc2c(ncn2C2CCC(CO)O2)C1O (stereo not drawn) | inactive: 8.25% | – |
| Cc1ccc(CN2[C@@H](CC3CCCCC3)COCCS2(=O)=O)cc1 | – | inconclusive: 25.9 µM [cytotoxic, single point] |
| c1ccc(COc2ccccc2CNc2nn[nH]n2)cc1 | – | inconclusive: 29.1 µM [rising, single point] |

A second format for some results above.
SMILES	activity change, negative = cytotoxicity	Potency
O=C(CN1CCOCC1)NCc1cc([N+](=O)[O-])ccc1O	–	inconclusive: 29.1 µM [rising, partial curve, poor fit]
Cc1onc(-c2ccccc2)c1C(=O)Nc1cccc(S(=O)(=O)N2CCCCC2)c1	–	inconclusive: 7.31 µM [cytotoxic, partial curve]
